Measured values from US20190169241A1 (BOARD OF TRUSTEES OF THE UNIVERSITY OF ILLINOIS, published 2019).
These are yes or no findings as the source states them, for the method shown. Binding seen in cells or lysates may run through a third protein. A yes stands for co-enrichment or nearness to the bait. Other partners may have been found. No binding means not detected with the bait. Where a sequence is shown, tags or fusion partners need not be part of it.

Biological target: FGFR
Test: pull-down with peptide on streptavidin beads, mass spec analysis

- binding: no binding
Binder: SRGTPVDERLFLIVRVTVQLSHP (biotin-tag (position not given)) [Biotin-DUF2C5 peptide (synthetic, residues 1238-1260 of KIF13B with a biotin-tag)]
